In publication PMC8384837:
Where a chain is given by its changes, count along the chain named. Some of the results follow. For part of these data: At the low end of the ranking the order means little. For part of these data: The source does not settle which construct or isoform was used.

What was measured:
Conditions in all cases: yeast three-hybrid, YBZ-1, SC-Leu-His + 0.5 mM 3-AT, 4 days
[1] = target: T1, PUM1 PUF domain R1-QFR R2-VFQ R7-NPG S863Q + R864F + Q867R + N899V + Y900F + S1079N + N1080P + E1083G (UniProt Q14671)
T1 sequence: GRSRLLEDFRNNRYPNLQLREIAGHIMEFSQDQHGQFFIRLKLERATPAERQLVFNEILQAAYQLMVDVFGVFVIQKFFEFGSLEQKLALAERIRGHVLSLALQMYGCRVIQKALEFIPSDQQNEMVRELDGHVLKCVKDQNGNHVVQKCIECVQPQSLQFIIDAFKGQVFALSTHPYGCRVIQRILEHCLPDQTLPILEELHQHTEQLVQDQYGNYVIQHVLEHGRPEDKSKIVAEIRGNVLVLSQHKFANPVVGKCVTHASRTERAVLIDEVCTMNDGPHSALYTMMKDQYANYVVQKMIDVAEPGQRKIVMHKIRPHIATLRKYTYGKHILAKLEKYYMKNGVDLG

[2] = target: T2, PUM1 PUF domain R2-VFQ R3-THE R4-TFR N899V + Y900F + C935T + R936H + Q939E + N971T + H972F + Q975R (UniProt Q14671)
T2 sequence: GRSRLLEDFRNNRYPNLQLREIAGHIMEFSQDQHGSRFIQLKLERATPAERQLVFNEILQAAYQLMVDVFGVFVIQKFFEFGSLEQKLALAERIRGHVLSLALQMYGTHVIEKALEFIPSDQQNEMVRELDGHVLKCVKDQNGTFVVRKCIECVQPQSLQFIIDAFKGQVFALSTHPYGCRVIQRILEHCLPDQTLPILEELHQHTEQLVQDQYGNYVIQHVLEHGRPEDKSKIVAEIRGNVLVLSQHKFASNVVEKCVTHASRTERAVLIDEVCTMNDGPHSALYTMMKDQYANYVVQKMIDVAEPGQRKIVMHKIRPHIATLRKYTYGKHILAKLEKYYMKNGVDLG

[3] = target: T3, PUM1 PUF domain R3-THE R4-TFR C935T + R936H + Q939E + N971T + H972F + Q975R (UniProt Q14671)
T3 sequence: T2 sequence with V72N, F73Y

[4] = target: T4, PUM1 PUF domain R3-THE R4-TFR R7-NPG C935T + R936H + Q939E + N971T + H972F + Q975R + S1079N + N1080P + E1083G (UniProt Q14671)
T4 sequence: T2 sequence with V72N, F73Y, S252N, N253P, E256G

[5] = target: T5, PUM1 PUF domain R5-PHQ R6-SWD C1007P + R1008H + N1043S + Y1044W + Q1047D (UniProt Q14671)
T5 sequence: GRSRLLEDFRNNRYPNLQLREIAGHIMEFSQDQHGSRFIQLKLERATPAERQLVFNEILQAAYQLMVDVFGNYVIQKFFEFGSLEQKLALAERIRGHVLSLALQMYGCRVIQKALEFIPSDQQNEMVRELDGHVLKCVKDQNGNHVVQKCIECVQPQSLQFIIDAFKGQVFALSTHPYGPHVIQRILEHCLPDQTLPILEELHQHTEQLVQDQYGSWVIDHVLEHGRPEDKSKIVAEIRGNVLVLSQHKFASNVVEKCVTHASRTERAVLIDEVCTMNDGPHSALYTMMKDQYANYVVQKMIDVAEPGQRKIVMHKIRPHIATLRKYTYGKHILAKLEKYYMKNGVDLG

[6] = target: T6, PUM1 PUF domain R3-THE R4-TFR R7-NPG C935T + R936H + Q939E + N971T + H972F + Q975R + S1079N + N1080P + E1083G (Homo sapiens) (UniProt Q14671)
T6 sequence: T2 sequence with V72N, F73Y, S252N, N253P, E256G

[7] = target: T7, PUM1 PUF domain R6-SWD R7-NPG N1043S + Y1044W + Q1047D + S1079N + N1080P + E1083G (Homo sapiens) (UniProt Q14671)
T7 sequence: T5 sequence with P180C, H181R, S252N, N253P, E256G

[8] = target: T8, PUM1 PUF domain R6-AWS N1043A + Y1044W + Q1047S (Homo sapiens) (UniProt Q14671)
T8 sequence: T5 sequence with P180C, H181R, S216A, D220S

[9] = target: T9, PUM1 PUF domain R6-FRE N1043F + Y1044R + Q1047E (UniProt Q14671)
T9 sequence: T5 sequence with P180C, H181R, S216F, W217R, D220E

[10] = target: T10, PUM1 PUF domain R6-FRS N1043F + Y1044R + Q1047S (UniProt Q14671)
T10 sequence: T5 sequence with P180C, H181R, S216F, W217R, D220S

[11] = target: T11, PUM1 PUF domain R6-NFW Y1044F + Q1047W (UniProt Q14671)
T11 sequence: T5 sequence with P180C, H181R, S216N, W217F, D220W

[12] = target: T12, PUM1 PUF domain R6-RPG N1043R + Y1044P + Q1047G (UniProt Q14671)
T12 sequence: T5 sequence with P180C, H181R, S216R, W217P, D220G

[13] = target: T13, PUM1 PUF domain R6-SFV N1043S + Y1044F + Q1047V (UniProt Q14671)
T13 sequence: T5 sequence with P180C, H181R, W217F, D220V

[14] = target: T14, PUM1 PUF domain R6-SRE N1043S + Y1044R + Q1047E (UniProt Q14671)
T14 sequence: T5 sequence with P180C, H181R, W217R, D220E

[15] = target: T15, PUM1 PUF domain R6-TFE N1043T + Y1044F + Q1047E (UniProt Q14671)
T15 sequence: T5 sequence with P180C, H181R, S216T, W217F, D220E

[16] = target: T16, PUM1 PUF domain R6-TRE N1043T + Y1044R + Q1047E (UniProt Q14671)
T16 sequence: T5 sequence with P180C, H181R, S216T, W217R, D220E

GGCUAGAACUAGUGGAUCCCCCGGCGCCCGGCGGCUCGAGCCCGGGUAAGUCGCUGUAGUCUGCAUGCCGCCGGGCGCCAUGCCUGCAGGUCGACUCUAGAAAACAUG
binding signal (log2 enrichment (interaction score)) [1]: -6.42
binding signal (log2 enrichment (interaction score)) [2]: -5.39
binding signal (log2 enrichment (interaction score)) [3]: -7.04
binding signal (log2 enrichment (interaction score)) [4]: -3.32
binding signal (log2 enrichment (interaction score)) [5]: -8.06

GGCUAGAACUAGUGGAUCCCCCGGCGCCCGGCGGCUCGAGCCCGGGUAAGAGGAAAAAGUCUGCAUGCCGCCGGGCGCCAUGCCUGCAGGUCGACUCUAGAAAACAUG
binding signal (log2 enrichment (interaction score)) [1]: -4.87
binding signal (log2 enrichment (interaction score)) [2]: -6.43
binding signal (log2 enrichment (interaction score)) [3]: -8.26
binding signal (log2 enrichment (interaction score)) [6]: -1.51
binding signal (log2 enrichment (interaction score)) [5]: < -8.49
binding signal (log2 enrichment (interaction score)) [7]: < -1.56

GGCUAGAACUAGUGGAUCCCCCGGCGCCCGGCGGCUCGAGCCCGGGUAAGUGCAAAUAGUCUGCAUGCCGCCGGGCGCCAUGCCUGCAGGUCGACUCUAGAAAACAUG
binding signal (log2 enrichment (interaction score)) [1]: -4.41
binding signal (log2 enrichment (interaction score)) [2]: -6
binding signal (log2 enrichment (interaction score)) [3]: -5.18
binding signal (log2 enrichment (interaction score)) [6]: -1.53
binding signal (log2 enrichment (interaction score)) [5]: -3.27
binding signal (log2 enrichment (interaction score)) [8]: -4.65
binding signal (log2 enrichment (interaction score)) [9]: < -7.98
binding signal (log2 enrichment (interaction score)) [10]: < -7.79
binding signal (log2 enrichment (interaction score)) [11]: -4.13
binding signal (log2 enrichment (interaction score)) [12]: < -8.56
binding signal (log2 enrichment (interaction score)) [13]: < -8.16
binding signal (log2 enrichment (interaction score)) [14]: < -7.69
binding signal (log2 enrichment (interaction score)) [15]: -5.76
binding signal (log2 enrichment (interaction score)) [16]: < -7.55

GGCUAGAACUAGUGGAUCCCCCGGCGCCCGGCGGCUCGAGCCCGGGUAAGUGGAAAACGUCUGCAUGCCGCCGGGCGCCAUGCCUGCAGGUCGACUCUAGAAAACAUG
binding signal (log2 enrichment (interaction score)) [1]: -4.91
binding signal (log2 enrichment (interaction score)) [2]: -5.42
binding signal (log2 enrichment (interaction score)) [3]: -7.1
binding signal (log2 enrichment (interaction score)) [4]: -2.1
binding signal (log2 enrichment (interaction score)) [5]: -3.01
binding signal (log2 enrichment (interaction score)) [7]: -0.88

GGCUAGAACUAGUGGAUCCCCCGGCGCCCGGCGGCUCGAGCCCGGGUAAGUUUACGUAGUCUGCAUGCCGCCGGGCGCCAUGCCUGCAGGUCGACUCUAGAAAACAUG
binding signal (log2 enrichment (interaction score)) [1]: -5.73
binding signal (log2 enrichment (interaction score)) [2]: -4.15
binding signal (log2 enrichment (interaction score)) [3]: -4.4
binding signal (log2 enrichment (interaction score)) [5]: -8.4
binding signal (log2 enrichment (interaction score)) [7]: -0.76

GGCUAGAACUAGUGGAUCCCCCGGCGCCCGGCGGCUCGAGCCCGGGUAAGUUGAUGGAGUCUGCAUGCCGCCGGGCGCCAUGCCUGCAGGUCGACUCUAGAAAACAUG
binding signal (log2 enrichment (interaction score)) [1]: -6.18
binding signal (log2 enrichment (interaction score)) [2]: -5.81
binding signal (log2 enrichment (interaction score)) [3]: -7.3
binding signal (log2 enrichment (interaction score)) [5]: -8.43

GGCUAGAACUAGUGGAUCCCCCGGCGCCCGGCGGCUCGAGCCCGGGUAAGCUUAAAUAGUCUGCAUGCCGCCGGGCGCCAUGCCUGCAGGUCGACUCUAGAAAACAUG
binding signal (log2 enrichment (interaction score)) [1]: -5.85
binding signal (log2 enrichment (interaction score)) [2]: -5.34
binding signal (log2 enrichment (interaction score)) [3]: -6.94
binding signal (log2 enrichment (interaction score)) [5]: < -8.32
binding signal (log2 enrichment (interaction score)) [7]: -1.1
